For assay [1], the target named is T1, WHY1-HA-GFPn173c (Arabidopsis thaliana) (UniProt Q9M9S3).
T1 sequence: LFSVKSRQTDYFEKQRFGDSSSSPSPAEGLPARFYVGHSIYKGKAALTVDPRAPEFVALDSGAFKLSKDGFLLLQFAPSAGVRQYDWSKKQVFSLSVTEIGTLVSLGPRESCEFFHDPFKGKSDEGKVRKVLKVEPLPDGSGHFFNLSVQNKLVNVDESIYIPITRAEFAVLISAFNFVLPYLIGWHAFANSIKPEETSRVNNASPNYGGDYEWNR
Briefly: split reporter; BiFC with GFPn173 and GFPc155 fusions under the 35S promoter, transiently co-expressed in onion epidermal cells; GFP fluorescence by microscopy.

Assay [2] concerns the target T2, WHY1-MYC-GFPc155c (Arabidopsis thaliana) (UniProt Q9M9S3).
T2 sequence: T1 sequence
The description is as above.

Assay [3] concerns the target T3, HA-tagged WHY1 in thylakoid membrane fractions (Arabidopsis thaliana) (UniProt Q9M9S3).
T3 sequence: T1 sequence
The experiment in a line: co-IP; solubilised thylakoid membrane fractions 1, 2 and 3 of a sucrose gradient as input; antibody against the HA tag, 4 °C, protein A beads, washed with 50 mM Tris-HCl, 0.1% nonidet P-40, pH 8.0; immunoblots with antibodies against LHCA1, LHCA2, LHCA3, LHCA4 and LHCB1.

These are yes or no findings as the source states them, for the method shown. Binding seen in cells or lysates may run through a third protein. For some assays here: Binding can be weak; no strength is given. Sequences can lack the tags named with a protein.

Take “LHCA1-MYC-GFPc155c (Arabidopsis thaliana)”: the binding result in assay [1] was “binds”.

As for LHCA4-GFPc155 (Arabidopsis thaliana), the binding entry in assay [1] was “no binding”. For the substance “LHCA1-HA-GFPn173c (Arabidopsis thaliana)”, the binding result in assay [2] is “binds”.

Turning to “LHCA4 (endogenous, thylakoid membrane fractions)”, the binding entry in assay [3] is “no binding”.

Regarding “photosystem II protein LHCB1 (endogenous, thylakoid membrane fractions)”, the binding result in assay [3] is given as “no binding”.

These data come from PMC5713321.
